Measurements taken from article doi:10.1101/2025.03.26.645561.
These are yes or no findings as the source states them, for the method shown. Some results given as binding are weak or reduced against the parent protein; the word gives no strength. For part of these data: Sequences can lack the tags named with a protein.

The chains behind the UniProt entries cited, without tags or fusion partners. Residues count along the entry.
UniProt P25454, residues 80-400: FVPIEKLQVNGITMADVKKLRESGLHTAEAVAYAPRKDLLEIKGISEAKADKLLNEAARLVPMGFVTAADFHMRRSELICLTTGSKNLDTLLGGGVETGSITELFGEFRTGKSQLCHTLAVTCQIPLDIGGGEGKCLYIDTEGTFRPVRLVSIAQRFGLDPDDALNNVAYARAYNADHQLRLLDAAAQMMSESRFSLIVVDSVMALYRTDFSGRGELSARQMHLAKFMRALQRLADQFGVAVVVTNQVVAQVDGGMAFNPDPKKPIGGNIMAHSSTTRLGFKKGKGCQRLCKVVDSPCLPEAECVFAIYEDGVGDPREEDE

T1: full-length S. cerevisiae Rad54 (GST-tagged) (S. cerevisiae), P32863
T1 chain: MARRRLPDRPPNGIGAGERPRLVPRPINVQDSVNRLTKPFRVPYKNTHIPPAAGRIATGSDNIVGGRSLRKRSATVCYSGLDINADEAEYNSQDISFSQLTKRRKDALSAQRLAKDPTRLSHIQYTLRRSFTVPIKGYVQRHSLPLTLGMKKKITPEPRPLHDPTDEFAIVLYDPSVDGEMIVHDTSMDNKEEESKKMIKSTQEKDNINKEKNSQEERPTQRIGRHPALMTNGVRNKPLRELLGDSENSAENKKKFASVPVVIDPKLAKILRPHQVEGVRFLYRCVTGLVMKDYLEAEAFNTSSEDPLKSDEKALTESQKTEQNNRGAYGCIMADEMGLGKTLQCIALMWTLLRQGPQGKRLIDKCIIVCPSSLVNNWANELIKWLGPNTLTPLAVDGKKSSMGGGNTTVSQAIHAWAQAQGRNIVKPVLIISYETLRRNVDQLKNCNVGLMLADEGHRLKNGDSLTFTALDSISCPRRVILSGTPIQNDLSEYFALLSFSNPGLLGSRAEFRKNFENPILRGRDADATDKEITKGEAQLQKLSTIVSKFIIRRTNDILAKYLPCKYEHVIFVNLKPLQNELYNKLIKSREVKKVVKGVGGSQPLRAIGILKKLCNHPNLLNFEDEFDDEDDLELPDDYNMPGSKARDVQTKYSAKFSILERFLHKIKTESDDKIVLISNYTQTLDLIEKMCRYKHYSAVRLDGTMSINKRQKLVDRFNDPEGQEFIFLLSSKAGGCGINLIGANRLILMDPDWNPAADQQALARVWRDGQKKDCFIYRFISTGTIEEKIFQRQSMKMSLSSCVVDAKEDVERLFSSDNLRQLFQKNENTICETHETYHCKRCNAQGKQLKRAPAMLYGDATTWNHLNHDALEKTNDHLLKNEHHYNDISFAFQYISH


How the values were obtained:
[1] = biological target: T1, full-length S. cerevisiae Rad54 …; experiment: SEC; Sephacryl S-300 gel filtration in 30 mM Tris-HCl pH 7.5, 500 mM NaCl, 1 mM EDTA, 10% glycerol, 10 mM BME, during purification; both purified; details: remark: other sources report otherwise
[2] = biological target: S. cerevisiae Rad51 (S. cerevisiae) (UniProt P25454); experiment: cryo-EM structure; Rad51 (5 uM) pre-assembled on 96-mer ssDNA (0.25 uM) in HR buffer (30 mM Tris pH 7.5, 20 mM MgCl2, 50 mM KCl, 1 mM DTT, 2 mM ATP), 30 C; 8-fold molar excess (40 uM) of Rad54 peptide or Hed1 peptide added for 10 min; both purified

binding [1]	binding [2]	Binder
no binding		full-length S. cerevisiae Rad54 (GST-tagged), P32863 1-898 (enzyme) MARRRLPDRPPNGIGAGERPRLVPRPINVQDSVNRLTKPFRVPYKNTHIPPAAGRIATGSDNIVGGRSLRKRSATVCYSGLDINADEAEYNSQDISFSQLTKRRKDALSAQRLAKDPTRLSHIQYTLRRSFTVPIKGYVQRHSLPLTLGMKKKITPEPRPLHDPTDEFAIVLYDPSVDGEMIVHDTSMDNKEEESKKMIKSTQEKDNINKEKNSQEERPTQRIGRHPALMTNGVRNKPLRELLGDSENSAENKKKFASVPVVIDPKLAKILRPHQVEGVRFLYRCVTGLVMKDYLEAEAFNTSSEDPLKSDEKALTESQKTEQNNRGAYGCIMADEMGLGKTLQCIALMWTLLRQGPQGKRLIDKCIIVCPSSLVNNWANELIKWLGPNTLTPLAVDGKKSSMGGGNTTVSQAIHAWAQAQGRNIVKPVLIISYETLRRNVDQLKNCNVGLMLADEGHRLKNGDSLTFTALDSISCPRRVILSGTPIQNDLSEYFALLSFSNPGLLGSRAEFRKNFENPILRGRDADATDKEITKGEAQLQKLSTIVSKFIIRRTNDILAKYLPCKYEHVIFVNLKPLQNELYNKLIKSREVKKVVKGVGGSQPLRAIGILKKLCNHPNLLNFEDEFDDEDDLELPDDYNMPGSKARDVQTKYSAKFSILERFLHKIKTESDDKIVLISNYTQTLDLIEKMCRYKHYSAVRLDGTMSINKRQKLVDRFNDPEGQEFIFLLSSKAGGCGINLIGANRLILMDPDWNPAADQQALARVWRDGQKKDCFIYRFISTGTIEEKIFQRQSMKMSLSSCVVDAKEDVERLFSSDNLRQLFQKNENTICETHETYHCKRCNAQGKQLKRAPAMLYGDATTWNHLNHDALEKTNDHLLKNEHHYNDISFAFQYISH
	binds	TKRRKDALSAQRLAKDPTRLSHIQYTLRRSFTVPIKGYVQRHSL [Rad54 peptide, 44 amino acids, residues 101-144 of S. cerevisiae Rad54]
	binds	PRKKKSLKDLIYETNKTFYQVDSNKVKYKVGLSKKQLLP [Hed1 peptide, 39 amino acids, residues 118-156 of S. cerevisiae Hed1]
